{"source": "PubChem BioAssay AID1671195 (Yale University, 2021)", "aim": "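Knockdowns that increase or decrease uptake of fluorescent LDL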 (primary screen)", "cell system": "human Huh7 hepatoma cells", "reagent": "siRNA pool against human genes, 18 nM", "duration": "about 2 to 2.5 days of knockdown, then 8 h LDL uptake", "treatment": "DiI-labelled LDL at 30 µg/ml for 8 h, in lipoprotein-deficient serum medium", "read-out": "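Fluorescent LDL signal imaged in cells, scaled to the plate median, robust z-score for each replicate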", "scale": "robust z-score: higher = more LDL uptake after knockdown", "call rule": "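Active when two or more replicates show a robust z-score above 2 or below -2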", "note": "This is a random part of about 22,000 reagents tested. About 1,510 of all reagents (6.9%) were called active. 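Active includes knockdowns raising or lowering LDL uptake; positive z-scores mean more uptake, negative mean less.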 Unmarked entries are inactive."}
{"Gene": "USP6 (GeneID 9098)", "robust z-score, replicate 1": -0.0824, "robust z-score, replicate 2": -0.0759, "robust z-score, replicate 3": -0.3}
{"Gene": "ANXA2R (GeneID 389289)", "robust z-score, replicate 1": 0.63, "robust z-score, replicate 2": 1.17, "robust z-score, replicate 3": 1.13}
{"Gene": "TMEM174 (GeneID 134288)", "robust z-score, replicate 1": 1.02, "robust z-score, replicate 2": 0.967, "robust z-score, replicate 3": 1.37}
{"Gene": "IL18RAP (GeneID 8807)", "robust z-score, replicate 1": 0.534, "robust z-score, replicate 2": -0.0942, "robust z-score, replicate 3": 0.164}
{"Gene": "HRH4 (GeneID 59340)", "robust z-score, replicate 1": 0.886, "robust z-score, replicate 2": -0.178, "robust z-score, replicate 3": -0.0118}
{"Gene": "TALDO1 (GeneID 6888)", "robust z-score, replicate 1": 0.0789, "robust z-score, replicate 2": -0.266, "robust z-score, replicate 3": -0.0123}
{"Gene": "RAB18 (GeneID 22931)", "robust z-score, replicate 1": 1.73, "robust z-score, replicate 2": 0.456, "robust z-score, replicate 3": 1.23}
{"Gene": "SPMAP2 (GeneID 51298)", "robust z-score, replicate 1": 0.243, "robust z-score, replicate 2": -0.591, "robust z-score, replicate 3": 0.00585}
{"Gene": "ABCG4 (GeneID 64137)", "robust z-score, replicate 1": 0.303, "robust z-score, replicate 2": 0.251, "robust z-score, replicate 3": 0.37}
{"Gene": "PBX4 (GeneID 80714)", "robust z-score, replicate 1": -0.508, "robust z-score, replicate 2": 0.0427, "robust z-score, replicate 3": -0.137}
{"Gene": "CDC42BPG (GeneID 55561)", "robust z-score, replicate 1": 0.652, "robust z-score, replicate 2": 0.448, "robust z-score, replicate 3": 0.449}
{"Gene": "CTXN1 (GeneID 404217)", "robust z-score, replicate 1": -0.202, "robust z-score, replicate 2": 1.04, "robust z-score, replicate 3": -0.367}
{"Gene": "AKR1B10 (GeneID 57016)", "robust z-score, replicate 1": -1.54, "robust z-score, replicate 2": -1.51, "robust z-score, replicate 3": -1.38}
{"Gene": "RGL4 (GeneID 266747)", "robust z-score, replicate 1": -0.453, "robust z-score, replicate 2": -0.169, "robust z-score, replicate 3": -0.311}
{"Gene": "LOC440683 (retired record) (GeneID 440683)", "robust z-score, replicate 1": -0.0605, "robust z-score, replicate 2": -0.266, "robust z-score, replicate 3": 0.0089}
{"Gene": "LOC391337 (retired record) (GeneID 391337)", "robust z-score, replicate 1": -1.06, "robust z-score, replicate 2": -1.09, "robust z-score, replicate 3": -1.27}

Copied from the list.
Under “robust z-score, replicate 1”, TMEM174 (GeneID 134288) reads 1.02
Result for IL18RAP (GeneID 8807) under “robust z-score, replicate 1”: 0.534

The list goes on.
{"Gene": "LAPTM4A (GeneID 9741)", "robust z-score, replicate 1": -0.328, "robust z-score, replicate 2": 0.311, "robust z-score, replicate 3": -1.86}
{"Gene": "LOC441085 (retired record) (GeneID 441085)", "robust z-score, replicate 1": -0.25, "robust z-score, replicate 2": -0.351, "robust z-score, replicate 3": -0.277}
{"Gene": "LINC00207 (GeneID 388910)", "robust z-score, replicate 1": 1.02, "robust z-score, replicate 2": 1.33, "robust z-score, replicate 3": 1.42}
{"Gene": "RPL5P11 (GeneID 402193)", "robust z-score, replicate 1": "-2.02 (active)", "robust z-score, replicate 2": -1.98, "robust z-score, replicate 3": -1.71}
{"Gene": "LOC440421 (retired record) (GeneID 440421)", "robust z-score, replicate 1": "-2.83 (active)", "robust z-score, replicate 2": -2.71, "robust z-score, replicate 3": -2.93}
{"Gene": "LRRC74A (GeneID 145497)", "robust z-score, replicate 1": 0.14, "robust z-score, replicate 2": -0.381, "robust z-score, replicate 3": -0.0778}
{"Gene": "PHACTR3 (GeneID 116154)", "robust z-score, replicate 1": -0.89, "robust z-score, replicate 2": -0.517, "robust z-score, replicate 3": -0.512}
{"Gene": "DHRS4 (GeneID 10901)", "robust z-score, replicate 1": -0.896, "robust z-score, replicate 2": -0.633, "robust z-score, replicate 3": -0.872}
